PubChem BioAssay AID1224829 – NIAID, 2016
Here is one part, drawn at random, of about 3,800 deposited reagents. 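Calls cover raised and lowered translocation; gene median uses one vendor's three siRNAs; qiagen siRNAs acted more weakly than ambion siRNAs.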 Reagents against one gene are numbered here. Not all columns of the deposit are shown. No sequences are given here.

- Aim: 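Secondary check of hits that alter LPS-induced p65 translocation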 (follow-up of hits)
- Cell system: mouse RAW264.7 G9 macrophage reporter cells
- Reagents: single siRNA against mouse genes, 100 nM
- Duration: 2 days of siRNA knock-down, then 40 min of LPS before fixing
- Conditions: LPS (Salmonella minnesota R595) at 10 ng/ml
- Measured: 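Imaging of GFP-p65 after 40 min of LPS; nuclear over perinuclear ring intensity ratio, scaled to plate median and non-targeting control wells, given as z-score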
- Scale: p65 translocation z-score: higher = more nuclear NF-kappaB p65 after LPS
- Call rule: 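An siRNA is called active when the mean z-score of its two replicates is above 2 or below -2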
- Meaning of the calls: active = changed p65 translocation (either direction); inactive = no clear change

gene | reagent | siRNA vendor or control pool | p65 translocation z-score, replicate mean | p65 translocation z-score, replicate 1 | p65 translocation z-score, replicate 2 | activity call
Tox | 1 | ambion single siRNA | -3.15 | -3.79 | -2.52 | active
Tox | 2 | ambion single siRNA | -2.71 | -2.7 | -2.72 | active
Tox | 3 | ambion single siRNA | -2.75 | -2.86 | -2.63 | active
Tox | 4 | qiagen single siRNA | 1.68 | 0.979 | 2.39 | inactive
Tox | 5 | qiagen single siRNA | 2.39 | -0.129 | 4.91 | active
Tox | 6 | qiagen single siRNA | 0.21 | -0.984 | 1.41 | inactive
Angel2 | 1 | ambion single siRNA | -3.44 | -4.73 | -2.16 | active
Angel2 | 2 | ambion single siRNA | -2.58 | -2.58 | – | active
Angel2 | 3 | ambion single siRNA | -3.6 | -3.6 | – | active
Angel2 | 4 | qiagen single siRNA | 1.64 | -0.239 | 3.51 | inactive
Angel2 | 5 | qiagen single siRNA | -0.241 | -1.26 | 0.776 | inactive
Angel2 | 6 | qiagen single siRNA | -2.57 | -2.57 | – | active
Krt6b | 1 | qiagen single siRNA | -2.1 | -2.21 | -1.99 | active
Krt6b | 2 | qiagen single siRNA | -4.7 | -3.8 | -5.61 | active
Krt6b | 3 | qiagen single siRNA | 0.0712 | -0.879 | 1.02 | inactive
Pwp2 | 1 | ambion single siRNA | -2.32 | -2.25 | -2.39 | active
Pwp2 | 2 | ambion single siRNA | -1.62 | -2.25 | -0.979 | inactive
Pwp2 | 3 | ambion single siRNA | -4.1 | -5.73 | -2.47 | active
Pwp2 | 4 | qiagen single siRNA | 2.01 | 0.902 | 3.11 | active
Pwp2 | 5 | qiagen single siRNA | -1.04 | 0.138 | -2.22 | inactive
Pwp2 | 6 | qiagen single siRNA | -1.06 | -1.43 | -0.682 | inactive

4 entries from above, ordered by “p65 translocation z-score, replicate mean”, high to low.
gene | reagent | siRNA vendor or control pool | p65 translocation z-score, replicate mean | p65 translocation z-score, replicate 1 | p65 translocation z-score, replicate 2 | activity call
Krt6b | 3 | qiagen single siRNA | 0.0712 | -0.879 | 1.02 | inactive
Krt6b | 1 | qiagen single siRNA | -2.1 | -2.21 | -1.99 | active
Angel2 | 6 | qiagen single siRNA | -2.57 | -2.57 | – | active
Krt6b | 2 | qiagen single siRNA | -4.7 | -3.8 | -5.61 | active

Next records:
gene | reagent | siRNA vendor or control pool | p65 translocation z-score, replicate mean | p65 translocation z-score, replicate 1 | p65 translocation z-score, replicate 2 | activity call
Or4f7 | 1 | ambion single siRNA | -1.95 | -1.09 | -2.8 | inactive
Or4f7 | 2 | ambion single siRNA | -1.57 | -1.71 | -1.43 | inactive
Or4f7 | 3 | ambion single siRNA | -5.09 | -4.57 | -5.6 | active
Or4f7 | 4 | qiagen single siRNA | 0.454 | -0.0759 | 0.984 | inactive
Or4f7 | 5 | qiagen single siRNA | -1.69 | -0.368 | -3.01 | inactive
Or4f7 | 6 | qiagen single siRNA | -0.361 | -0.0493 | -0.672 | inactive
Cdc5l | 1 | ambion single siRNA | -4.22 | -3.97 | -4.46 | active
Cdc5l | 2 | ambion single siRNA | 2.52 | 2.52 | – | active
Cdc5l | 3 | ambion single siRNA | -0.986 | -2.32 | 0.344 | inactive
Cdc5l | 4 | qiagen single siRNA | 2.24 | 1.82 | 2.65 | active
Cdc5l | 5 | qiagen single siRNA | 0.524 | -0.253 | 1.3 | inactive
Cdc5l | 6 | qiagen single siRNA | -1.12 | -1.49 | -0.76 | inactive
Zscan21 | 1 | ambion single siRNA | -5.1 | -5.66 | -4.54 | active
Zscan21 | 2 | ambion single siRNA | -4.64 | -4.26 | -5.02 | active
Zscan21 | 3 | ambion single siRNA | -3.06 | -3.27 | -2.85 | active
Zscan21 | 4 | qiagen single siRNA | 2.23 | 1.97 | 2.49 | active
Zscan21 | 5 | qiagen single siRNA | -0.974 | -0.924 | -1.02 | inactive
Zscan21 | 6 | qiagen single siRNA | -3.21 | -4.38 | -2.05 | active
Bach1 | 1 | ambion single siRNA | 2.88 | 3.44 | 2.32 | active
Bach1 | 2 | ambion single siRNA | -0.372 | -0.881 | 0.137 | inactive
Bach1 | 3 | ambion single siRNA | -1.66 | -1.63 | -1.69 | inactive
Bach1 | 4 | qiagen single siRNA | 3.19 | 3.43 | 2.95 | active
Bach1 | 5 | qiagen single siRNA | 1.63 | 0.873 | 2.38 | inactive
Bach1 | 6 | qiagen single siRNA | -4.57 | -4.57 | – | active
Sytl5 | 1 | ambion single siRNA | 0.835 | 1.76 | -0.0916 | inactive
Sytl5 | 2 | ambion single siRNA | -0.8 | -0.111 | -1.49 | inactive
Sytl5 | 3 | ambion single siRNA | -4 | -4.26 | -3.74 | active
Sytl5 | 4 | qiagen single siRNA | 1.79 | 0.484 | 3.1 | inactive
Sytl5 | 5 | qiagen single siRNA | -0.968 | -1.83 | -0.105 | inactive
Sytl5 | 6 | qiagen single siRNA | 0.906 | -0.318 | 2.13 | inactive
